Source: US20240376222A1
These are yes or no findings as the source states them, for the method shown. Binding can be weak; no strength is given.

What was measured:
[1] = target: cynomolgus TfR extracellular domain (ECD) (cynomolgus); assay: Octet BLI, IgG1 on Protein A biosensors
[2] = target: cynomolgus TfR extracellular domain (ECD) (cynomolgus); assay: phage ELISA, scFv phage on coated TfR, anti-M13-HRP, single point
[3] = target: cynomolgus TfR extracellular domain (ECD) (cynomolgus); assay: BLI (Octet), IgG1 30 ug/mL on Protein A sensor, 200 nM antigen, maximum association signal
[4] = target: cynomolgus TfR extracellular domain (ECD) (cynomolgus); assay: BLI (Octet), 5B6 loaded on sensor, CynoTfR at 400 to 3.13 nM
[5] = target: cynomolgus TfR extracellular domain (ECD) (cynomolgus); assay: BLI (Octet), 4G1 loaded on sensor, CynoTfR at 400 to 3.13 nM

Measured: binding

B1: 1C8 (antibody, V domains shown)
VH: QVQLVQSGAEVKKPGSSMKVSCKASGGTFSSYAISWVRQAPGQGLEWMGGIIPIFGTAKYAQKFQGRVTITADESTTTAYMELSSLSSEDTAVYYCARSLGWYYAFDIWGQGTMVTVSS
VL: DIVMTQSPSTLSASVGDRVTITCRASQNINNWLAWYQQKPGKAPKLLIYKASTAESGVPSRFSGSGFGTEFTLTISSLQPDDFASYYCQQYKNYPYSNLYTFGQGTKVDIK
binds: [1] | [2] | [3]

B2: 8G5 (antibody, V domains shown)
VH: QVQLVQSGAEVKKPGASVKVSCKASGYTFTSYGISWVRQAPGQGLEWMGWISAYNGNTNYAQKLQGRVTMTTDTSTSTAYMELRSLRSDDTAVYYCARVGYYYYGMDVWGQGTTVTVSS
VL: QSVLTQPPSVSGAPGQRVTISCTGSSSNIGAGFDVHWYQQLPGTAPKLLIYANSNRPSGVPDRFSASKSGTSASLAITGLQAEDEADYYCQSYDRSLSGYVFGSGTKVTVL
binds: [1] | [2] | [3]

B3: 1B2 (antibody, V domains shown)
VH: QVQLVQSGAEVKKPGESLRISCKGSGYSFTSYWISWVRQMPGKGLEWMGRIDPSDSYTNYSPSFQGHVTISADKSISTAYLQWSSLKASDTAMYYCARHPLAYCGGDCQRGFDYWGQGTLVTVSS
VL: QPVLTQPPSVSVSPGQTARITCSGDKLREDLTSWYQQKPGQSPVLVIYQDSKRPSGIPARFSGSISGSTATLTISGTQAVDEADYYCQAWDNSVDYVFGTGTKVTVL
binds: [1] | [2] | [3]

B4: 3H8 (antibody, V domains shown)
VH: QVQLVQSGAEVKKPGESLRISCKGSGYSFTSYWISWVRQMPGKGLEWMGRIDPSDSYTNYSPSFQGHVTISADKSISTAYLQWSSLKASDTAMYYCARHPPRSTRGDYGMDVWGQGTMVTVSS
VL: QAVVTQPPSVSGTPGQRVTISCSGSNSNIGSYIVNWYQQLPGTAPKLLIWGNDRRPSGVPDRVSASKSGTSASLAISGLQSEDEGDYYCAAWDNILNNYVFGPGTQLTVL
binds: [1] | [2] | [3]

B5: 8A5 (antibody, V domains shown)
VH: QVQLVQSGAEVKKPGESLRISCKGSGYSFTSYWISWVRQMPGKGLEWMGRIDPSDSYTNYSPSFQGHVTISADKSISTAYLQWSSLKASDTAIYYCARARTWFDAFDIWGQGTTVTVSS
VL: QAVVTQPPSASGTPGQRVTISCSGGSSNIGRYSVNWYQQLPGTAPKLLINSNIQRPSGVPDRFSGSKSGTSASLAISGLQSEDEADYHCAAWDDSLKGWVFGGGTKVTVL
binds: [1] | [2] | [3]

B6: 5B6 (antibody, V domains shown)
VH: PVLLVQSGAEVKKPGSSVKVSCKASGGTFSSYAISWVRQAPGQGLEWMGGIIPIFGTANYAQKFQGRVTITADESTSTAYMELSSLRSEDTAVYYCAVSIFGVVIPLDYWGQGTLVIVSS
VL: QPVLTQSPSVSLAPGQTAKITCGGTNIGRKSVHWYQQKPGQAPVMVIYYDSDRPSGIPERFAGSNSGNTATLTISRVEAGDEAVYYCQVWDSSSASGVFGGGTKVTVL
not listed: [5]
binds: all other assays above

B7: 7B10 (antibody, V domains shown)
VH: QVQLVQSGAEVKKPGASVKVSCKASGYTFTSYGISWVRQAPGQGLEWMGWISAYNGNTNYAQKLQGRVTMTTDTSTSTAYMELRSLRSDDTAVYYCARDQKLLHILYYYGMDVWGQGTTVIVSS
VL: DIVMTQSPLSLSVTPGEPASISCRSSQSLLHSNGNNYLDWYLQKPGQSPQLLIYLGSNRASGVPDRFSGSGSGTDFSLKINKVEAEDVGVYYCMQALQTAYTFGQGTKLEIK
binds: [1] | [2] | [3]

B8: 4G1 (antibody, V domains shown)
VH: EVQLLESGGGLIQPGGSLRLSCAASGFSVSSYYMNWVRQAPGKGLEWVSNTYTDGSTSYADSVGGRFSVSRDNSKNTLHLQMNSLRVEDTAVYYCAREGDGYNSGGLDYWGQGTLVTVSS
VL: DIQLTQSPASLSASLGDRVTITCRASQSIGTYLNWYQQRPGQAPKLLIFGTSSLQSGVPSRFSGSGSGTDFTLTISSLQPEDLATYYCQQTYITPRTFGQGTKVEIK
not listed: [4]
binds: all other assays above
